# Reference: patent EP3912994A1
# Sequences of proteins named here, by UniProt entry; tags and fusion partners are left off. Residues count along the entry.
# UniProt Q80YX1, residues 23-2110: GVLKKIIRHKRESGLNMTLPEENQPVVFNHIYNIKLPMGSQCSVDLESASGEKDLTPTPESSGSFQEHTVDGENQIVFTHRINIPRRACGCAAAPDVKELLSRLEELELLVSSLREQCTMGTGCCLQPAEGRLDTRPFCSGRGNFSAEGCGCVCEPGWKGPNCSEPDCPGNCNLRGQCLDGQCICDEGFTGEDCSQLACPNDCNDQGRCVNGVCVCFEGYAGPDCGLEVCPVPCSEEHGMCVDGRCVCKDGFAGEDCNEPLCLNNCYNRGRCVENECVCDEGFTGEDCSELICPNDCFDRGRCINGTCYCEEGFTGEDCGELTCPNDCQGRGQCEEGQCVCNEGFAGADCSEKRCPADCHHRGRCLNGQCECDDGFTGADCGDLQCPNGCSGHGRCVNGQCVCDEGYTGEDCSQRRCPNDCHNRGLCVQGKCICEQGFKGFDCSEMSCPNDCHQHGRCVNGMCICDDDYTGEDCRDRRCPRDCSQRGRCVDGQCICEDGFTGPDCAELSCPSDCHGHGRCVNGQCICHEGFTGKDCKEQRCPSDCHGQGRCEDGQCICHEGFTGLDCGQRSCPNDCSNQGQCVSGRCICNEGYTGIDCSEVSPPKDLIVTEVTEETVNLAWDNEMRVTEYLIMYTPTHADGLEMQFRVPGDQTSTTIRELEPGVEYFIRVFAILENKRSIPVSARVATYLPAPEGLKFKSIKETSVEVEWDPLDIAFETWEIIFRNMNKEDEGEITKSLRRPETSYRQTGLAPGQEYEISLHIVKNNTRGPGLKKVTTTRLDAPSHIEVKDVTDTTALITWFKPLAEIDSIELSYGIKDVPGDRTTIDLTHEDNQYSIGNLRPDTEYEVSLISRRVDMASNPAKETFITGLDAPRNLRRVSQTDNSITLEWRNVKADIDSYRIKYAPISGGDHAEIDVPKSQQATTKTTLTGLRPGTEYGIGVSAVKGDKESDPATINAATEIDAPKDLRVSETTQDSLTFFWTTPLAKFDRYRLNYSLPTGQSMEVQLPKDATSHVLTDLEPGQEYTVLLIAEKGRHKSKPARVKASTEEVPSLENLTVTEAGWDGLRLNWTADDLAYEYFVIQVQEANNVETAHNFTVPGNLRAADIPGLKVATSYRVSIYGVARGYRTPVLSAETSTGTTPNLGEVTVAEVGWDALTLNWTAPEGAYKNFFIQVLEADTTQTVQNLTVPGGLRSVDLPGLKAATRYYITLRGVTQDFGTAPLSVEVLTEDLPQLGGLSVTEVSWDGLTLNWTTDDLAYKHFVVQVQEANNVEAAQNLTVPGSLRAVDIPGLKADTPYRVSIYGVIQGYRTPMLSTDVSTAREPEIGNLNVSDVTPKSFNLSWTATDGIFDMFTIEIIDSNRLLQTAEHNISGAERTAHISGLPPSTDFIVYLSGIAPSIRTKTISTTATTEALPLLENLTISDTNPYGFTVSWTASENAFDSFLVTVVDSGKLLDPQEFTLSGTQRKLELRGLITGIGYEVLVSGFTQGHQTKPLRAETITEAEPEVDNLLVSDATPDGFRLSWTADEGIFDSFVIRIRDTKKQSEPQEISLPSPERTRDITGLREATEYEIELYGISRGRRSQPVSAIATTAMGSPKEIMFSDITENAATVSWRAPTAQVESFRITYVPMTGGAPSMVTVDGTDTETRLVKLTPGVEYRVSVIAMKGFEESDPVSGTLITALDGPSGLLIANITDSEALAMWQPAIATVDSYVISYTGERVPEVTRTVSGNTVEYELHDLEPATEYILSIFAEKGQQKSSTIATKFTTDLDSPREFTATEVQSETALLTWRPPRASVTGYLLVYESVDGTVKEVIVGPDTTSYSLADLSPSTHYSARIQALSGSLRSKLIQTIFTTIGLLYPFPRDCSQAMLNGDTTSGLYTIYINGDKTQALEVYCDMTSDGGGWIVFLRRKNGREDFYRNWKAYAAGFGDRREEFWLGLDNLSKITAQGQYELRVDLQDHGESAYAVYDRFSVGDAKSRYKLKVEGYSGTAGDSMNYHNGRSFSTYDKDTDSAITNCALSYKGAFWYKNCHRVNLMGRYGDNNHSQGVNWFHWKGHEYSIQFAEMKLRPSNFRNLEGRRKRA
# UniProt P07356, residues 2-339: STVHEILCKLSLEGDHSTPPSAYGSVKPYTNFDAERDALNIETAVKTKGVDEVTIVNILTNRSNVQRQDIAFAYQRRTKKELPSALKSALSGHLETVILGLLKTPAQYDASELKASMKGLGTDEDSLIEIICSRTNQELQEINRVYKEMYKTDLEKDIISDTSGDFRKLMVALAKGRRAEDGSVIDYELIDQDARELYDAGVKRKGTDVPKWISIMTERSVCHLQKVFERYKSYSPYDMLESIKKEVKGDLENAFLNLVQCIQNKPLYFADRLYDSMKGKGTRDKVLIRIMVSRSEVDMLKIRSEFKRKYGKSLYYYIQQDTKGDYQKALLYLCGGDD
# UniProt Q06890, residues 22-448: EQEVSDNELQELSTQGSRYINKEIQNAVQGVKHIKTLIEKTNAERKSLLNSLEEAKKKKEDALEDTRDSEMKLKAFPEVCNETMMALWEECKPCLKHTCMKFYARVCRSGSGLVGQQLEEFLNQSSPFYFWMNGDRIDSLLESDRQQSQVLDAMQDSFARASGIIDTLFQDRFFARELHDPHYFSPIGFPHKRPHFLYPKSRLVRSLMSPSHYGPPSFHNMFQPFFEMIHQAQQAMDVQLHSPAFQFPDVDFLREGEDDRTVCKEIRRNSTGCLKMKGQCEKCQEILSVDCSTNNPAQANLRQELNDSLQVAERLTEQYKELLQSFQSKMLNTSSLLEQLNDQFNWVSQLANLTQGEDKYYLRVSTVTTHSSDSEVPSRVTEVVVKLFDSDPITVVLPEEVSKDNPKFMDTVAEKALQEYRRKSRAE
# UniProt P51859: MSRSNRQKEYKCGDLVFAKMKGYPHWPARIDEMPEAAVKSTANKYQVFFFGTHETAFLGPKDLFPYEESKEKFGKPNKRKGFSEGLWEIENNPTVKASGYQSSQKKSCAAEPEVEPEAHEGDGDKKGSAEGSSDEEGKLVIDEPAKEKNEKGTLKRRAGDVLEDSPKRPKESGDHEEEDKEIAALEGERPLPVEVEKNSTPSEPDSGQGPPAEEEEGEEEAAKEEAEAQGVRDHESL
# UniProt P02469, residues 22-1786: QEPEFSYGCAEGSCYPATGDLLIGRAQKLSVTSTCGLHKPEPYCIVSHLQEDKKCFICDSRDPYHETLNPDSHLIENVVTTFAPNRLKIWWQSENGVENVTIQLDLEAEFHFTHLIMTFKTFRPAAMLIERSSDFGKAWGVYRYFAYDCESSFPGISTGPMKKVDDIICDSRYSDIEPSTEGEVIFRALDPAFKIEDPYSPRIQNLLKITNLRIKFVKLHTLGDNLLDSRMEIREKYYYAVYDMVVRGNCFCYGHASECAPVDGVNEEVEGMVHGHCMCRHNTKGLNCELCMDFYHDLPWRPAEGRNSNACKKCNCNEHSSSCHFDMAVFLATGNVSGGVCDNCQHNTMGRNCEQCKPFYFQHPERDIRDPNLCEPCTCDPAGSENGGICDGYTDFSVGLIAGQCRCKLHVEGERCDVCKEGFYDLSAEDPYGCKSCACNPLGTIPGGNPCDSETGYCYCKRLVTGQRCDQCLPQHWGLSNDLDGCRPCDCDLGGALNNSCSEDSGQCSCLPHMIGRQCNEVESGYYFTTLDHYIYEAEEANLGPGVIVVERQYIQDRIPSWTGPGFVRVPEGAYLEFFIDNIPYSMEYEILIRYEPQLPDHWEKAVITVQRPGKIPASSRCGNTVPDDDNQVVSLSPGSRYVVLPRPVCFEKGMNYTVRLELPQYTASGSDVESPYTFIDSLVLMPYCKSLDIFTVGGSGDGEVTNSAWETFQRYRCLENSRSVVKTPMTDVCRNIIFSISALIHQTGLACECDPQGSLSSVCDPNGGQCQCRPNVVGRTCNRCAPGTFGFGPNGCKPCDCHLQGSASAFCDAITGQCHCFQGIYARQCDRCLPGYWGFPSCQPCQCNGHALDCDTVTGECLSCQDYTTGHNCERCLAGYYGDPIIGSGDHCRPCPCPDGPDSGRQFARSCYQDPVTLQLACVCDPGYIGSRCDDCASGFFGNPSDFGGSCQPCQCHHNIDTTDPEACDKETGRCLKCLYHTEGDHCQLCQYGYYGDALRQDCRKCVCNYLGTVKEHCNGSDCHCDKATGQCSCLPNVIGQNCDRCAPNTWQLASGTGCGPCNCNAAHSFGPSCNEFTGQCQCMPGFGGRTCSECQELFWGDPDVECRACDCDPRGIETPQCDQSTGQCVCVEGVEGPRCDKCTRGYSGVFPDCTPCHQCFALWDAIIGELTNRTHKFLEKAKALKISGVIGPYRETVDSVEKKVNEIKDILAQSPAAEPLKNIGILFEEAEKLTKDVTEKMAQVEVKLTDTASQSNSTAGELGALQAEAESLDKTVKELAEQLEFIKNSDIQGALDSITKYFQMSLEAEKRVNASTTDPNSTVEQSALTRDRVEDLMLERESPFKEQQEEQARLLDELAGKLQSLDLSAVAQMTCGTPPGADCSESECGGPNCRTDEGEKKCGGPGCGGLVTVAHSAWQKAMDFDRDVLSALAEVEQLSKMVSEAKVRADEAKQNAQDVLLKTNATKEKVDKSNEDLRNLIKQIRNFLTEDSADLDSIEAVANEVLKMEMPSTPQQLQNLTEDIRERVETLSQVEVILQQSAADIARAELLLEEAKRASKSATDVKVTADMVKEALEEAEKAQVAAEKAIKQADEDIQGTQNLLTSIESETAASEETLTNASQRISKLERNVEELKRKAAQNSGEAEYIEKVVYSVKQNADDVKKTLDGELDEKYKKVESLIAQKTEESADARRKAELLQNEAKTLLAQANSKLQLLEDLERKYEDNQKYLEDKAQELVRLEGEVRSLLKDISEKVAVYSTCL
# UniProt Q9R118, residues 23-480: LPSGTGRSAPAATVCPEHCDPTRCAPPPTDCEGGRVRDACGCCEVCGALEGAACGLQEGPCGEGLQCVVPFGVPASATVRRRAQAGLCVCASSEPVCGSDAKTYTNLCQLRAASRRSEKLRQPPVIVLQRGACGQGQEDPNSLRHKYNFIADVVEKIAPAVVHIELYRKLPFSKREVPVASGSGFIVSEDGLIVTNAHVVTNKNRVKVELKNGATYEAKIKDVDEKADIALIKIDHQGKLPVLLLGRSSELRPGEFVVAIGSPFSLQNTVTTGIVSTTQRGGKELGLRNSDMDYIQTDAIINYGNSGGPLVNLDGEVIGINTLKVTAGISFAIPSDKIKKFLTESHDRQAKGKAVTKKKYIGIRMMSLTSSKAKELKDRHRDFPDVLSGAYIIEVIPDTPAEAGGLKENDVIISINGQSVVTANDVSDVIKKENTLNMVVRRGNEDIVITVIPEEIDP
# UniProt Q9CW03: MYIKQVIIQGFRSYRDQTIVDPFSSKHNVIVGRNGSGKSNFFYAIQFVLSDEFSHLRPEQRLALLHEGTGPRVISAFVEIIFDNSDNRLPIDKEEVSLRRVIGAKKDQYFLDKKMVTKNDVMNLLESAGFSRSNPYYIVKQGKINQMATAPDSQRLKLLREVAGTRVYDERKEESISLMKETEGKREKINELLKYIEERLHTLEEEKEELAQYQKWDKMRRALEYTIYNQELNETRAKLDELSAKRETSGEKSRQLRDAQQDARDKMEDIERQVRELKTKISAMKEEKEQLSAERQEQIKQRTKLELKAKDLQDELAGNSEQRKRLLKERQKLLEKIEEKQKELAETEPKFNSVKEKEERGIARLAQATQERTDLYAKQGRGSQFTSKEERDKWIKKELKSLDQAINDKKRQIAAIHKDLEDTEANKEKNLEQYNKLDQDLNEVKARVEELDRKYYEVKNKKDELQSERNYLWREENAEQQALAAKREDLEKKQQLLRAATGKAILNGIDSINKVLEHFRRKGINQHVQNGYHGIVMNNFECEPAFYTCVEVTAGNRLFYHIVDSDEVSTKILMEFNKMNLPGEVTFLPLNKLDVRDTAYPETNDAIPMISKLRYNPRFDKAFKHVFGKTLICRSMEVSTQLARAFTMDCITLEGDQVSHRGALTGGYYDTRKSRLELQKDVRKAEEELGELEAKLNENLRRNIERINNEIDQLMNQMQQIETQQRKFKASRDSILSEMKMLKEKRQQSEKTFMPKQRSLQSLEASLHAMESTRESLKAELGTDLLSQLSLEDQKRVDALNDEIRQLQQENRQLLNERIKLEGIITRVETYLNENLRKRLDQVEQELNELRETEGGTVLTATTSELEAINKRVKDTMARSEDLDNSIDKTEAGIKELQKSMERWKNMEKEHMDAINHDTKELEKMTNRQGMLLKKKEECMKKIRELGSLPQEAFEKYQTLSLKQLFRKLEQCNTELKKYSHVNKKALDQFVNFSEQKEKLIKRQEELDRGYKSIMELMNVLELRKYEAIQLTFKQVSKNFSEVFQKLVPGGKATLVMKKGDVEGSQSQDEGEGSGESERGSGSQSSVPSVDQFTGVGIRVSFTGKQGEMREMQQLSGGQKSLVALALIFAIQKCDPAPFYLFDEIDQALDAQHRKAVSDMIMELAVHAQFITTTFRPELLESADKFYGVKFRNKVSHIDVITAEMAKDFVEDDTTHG
# These are yes or no findings as the source states them, for the method shown. Binding seen in cells or lysates may run through a third protein. A yes stands for co-enrichment or nearness to the bait. Other partners may have been found.
# Biological target: murine strep-tagged TNC (mTNC) (mouse) (UniProt Q80YX1)
# Assay: co-purification with recombinant mTNC, 1 M NaCl eluate, mass spectrometry
row,Substance,binding
1,Annexin A2 (from UniProt P07356 2-339),binds
2,Annexin A5 (from UniProt P48036 2-319),binds
3,Basement membrane-specific heparan sulfate proteoglycan core protein (from UniProt Q05793 22-3707),binds
4,Calreticulin (from UniProt P14211 18-416),binds
5,Clusterin (from UniProt Q06890 22-448),binds
6,Collagen alpha-1 (COL5A1) (from UniProt O88207 37-1838),binds
7,Collagen alpha-1 (COL12A1) (from UniProt Q60847 24-3120),binds
8,Collagen alpha-1 (COL18A1) (from UniProt P39061 27-1774),binds
9,Collagen alpha-2 (COL4A2) (from UniProt P08122 26-1707),binds
10,EMILIN-2 (from UniProt Q8K482 34-1074),binds
11,Endoplasmin (from UniProt P08113 22-802),binds
12,"Fibronectin (FN1, co-purified with TNC) (from UniProt P11276 33-2477)",binds
13,Hepatoma-derived growth factor (from UniProt P51859 1-237),binds
14,Laminin subunit alpha-4 (from UniProt P97927 25-1816),binds
15,Laminin subunit beta-1 (from UniProt P02469 22-1786),binds
16,Laminin subunit beta-2 (from UniProt Q61292 36-1799),binds
17,Laminin subunit gamma-1 (from UniProt P02468 34-1607),binds
18,Lysyl oxidase homolog 2 (from UniProt P58022 26-776) (enzyme),binds
19,Metalloproteinase inhibitor 1 (from UniProt P12032 25-205),binds
20,Pyruvate kinase PKM (from UniProt P52480 1-531) (enzyme),binds
21,Serine protease HTRA1 (from UniProt Q9R118 23-480) (enzyme),binds
22,Structural maintenance of chromosomes protein 3 (from UniProt Q9CW03 1-1217),binds
23,Tenascin-N (from UniProt Q80Z71 27-1560),binds
24,Versican core protein (from UniProt Q62059 24-3357),binds
